Measurements as given in patent US20120121723A1, “Antimicrobial Compositions” (priority 2005, published 2012).
Where two headings read alike, the source gives them in different places.

What was measured:
MRSA = assay: MIC by tube dilution and Kull synergy index against MRSA; format: cell-based; details: Staphylococcus aureus
From the text: (§1) MIC testing and synergistic effects studies. The microorganisms were clinically obtained isolates. Staphylococcus aureus is a clinically significant member of the gram-positive group of bacterial pathogens. It gives rise to serious infections, and can produce bacteremia, endocarditis, and meningitis. Methicillin-resistant strains of Staphylococcus aureus (MRSA) were chosen for evaluation because they are a significant medical problem, particularly in view of the fact that methicillin is a drug of choice for treatment of S. aureus infection in the common penicillin-resistant strains. Escherichia coli was also chosen for evaluation. E. coli is a gram-negative pathogenic enterobacteriaceae, and is commonly used as a model organism for bacteria in general. The E. coli strain O157:H7, one of hundreds of strains of the bacterium E. coli, causes illness in humans.
All individual components are present in the combination at a starting point of 10,000 μg/mL, or 1% unless otherwise noted in the parenthesis in the attached tables. Combinations are serially diluted to obtain the MIC. […]
Abbreviations in Tables 2 and 3 are as follows. MIC is the Minimum Inhibitory Concentration. MRSA is Methicillin-resistant Staphylococcus Aureus. E. coli is Escherichia coli. […] Pluronic® F127 is Pluronic® F127 microemulsion.
The Minimum Inhibitory Concentrations (MIC) were determined using tube dilution sensitivities. […] The cultures were incubated overnight at 37° C. and MICs were recorded. The MIC was determined as the lowest concentration of a combination which prevented visible microorganism growth (e.g., turbidity). A culture growth control without compound and several culture sensitive reference agents were used as positive controls. The assays were performed in triplicate. […]

E. coli = assay: microbe, parasite or virus in culture; format: cell-based; details: Escherichia coli, read-out: 2-MIC-
From the text: as §1
All individual components are present in the combination at a starting point of 10,000 μg/mL, or 1% unless otherwise noted in the parenthesis in the attached tables. Combinations are serially diluted to obtain the MIC. […]
The Minimum Inhibitory Concentrations (MIC) were determined using tube dilution sensitivities. […] The cultures were incubated overnight at 37° C. and MICs were recorded. The MIC was determined as the lowest concentration of a combination which prevented visible microorganism growth (e.g., turbidity). […]

CCCCCCCCCCCCCCCC[n+]1ccccc1 [CPC, cetylpyridinium chloride]
MIC (MRSA; read-out: 1-MIC-): 3.15 µg/mL
MIC (MRSA; read-out: 2-MIC-): 3.15 µg/mL
MIC (MRSA; read-out: 2-MIC-MRSA): 3.15 µg/mL
MIC (E. coli): 3 µg/mL
